Experimental data: PubChem BioAssay AID1259308 (NCATS, 2017)
Assay: 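Genes whose loss raises luciferase production in HEK293 cells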 (primary screen). Cell system: human HEK293 embryonic kidney cells stably expressing firefly luciferase (HEK-CMV-Luc2-Hygro). Knock-down reagent: single siRNA against human genes, 0.8 pmol siRNA per well. Time to read-out: 72 h. Read-out: 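Luciferase light (ONE-Glo) measured on one replicate plate set and viability (CellTiter-Glo) on the other, scaled to a negative control siRNA, with robust z-scores and luciferase per cell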. Direction: total luciferase, z-score and total luciferase, % of control: higher = more reporter protein produced; luciferase per cell, z-score: higher = more reporter output per viable cell; viable cells, % of control: higher = more viable cells. Call rule: 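An siRNA counts as active if its total luciferase robust z-score exceeds 3; genes with two or more such siRNAs out of three were retested with fresh siRNAs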. Meaning of the calls: active = raised luciferase; inactive = no rise.
The deposit covers about 59,000 reagents; below is a part drawn at random. Over the whole deposit, about 1,510 (2.6%) are marked active. 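Calls use total luciferase alone and ignore viability, so some active siRNAs may act by altering cell number.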 Unmarked entries are inactive. The numbers tell different reagents against one gene apart. Reagent sequences are not shown.

Target gene	reagent	total luciferase, z-score	total luciferase, % of control	luciferase per cell, z-score	viable cells, % of control
PRPF38A (GeneID 84950)	1	0.648	94.8	2.27	58.2
PRPF38A (GeneID 84950)	2	2.94	140	4.2	52
PRPF38A (GeneID 84950)	3	-0.091	80.1	-0.0842	91.5
TMEM121B (GeneID 27439)	1	-0.0461	81	1.66	58.4
TMEM121B (GeneID 27439)	2	-3.02	21.9	-1.98	41.1
TMEM121B (GeneID 27439)	3	-2.97	22.9	-1.67	39.6
SPATA31D5P (GeneID 347127)	1	1.1	104	0.745	95.3
SPATA31D5P (GeneID 347127)	2	-1.61	50	-1.5	82.8
SPATA31D5P (GeneID 347127)	3	1.4	110	1.31	86.9
CENPVL1 (GeneID 389857)	1	0.724	96.3	0.374	97.5
CENPVL1 (GeneID 389857)	2	0.541	92.6	0.164	99.2
CENPVL1 (GeneID 389857)	3	2.33	128	1.81	89
LY6G5C (GeneID 80741)	1	1.31	108	1.3	85.7
LY6G5C (GeneID 80741)	2	0.915	100	0.238	105
LY6G5C (GeneID 80741)	3	-1.3	56.1	-0.0246	63.1
CALB1 (GeneID 793)	1	-0.197	78	-0.574	101
CALB1 (GeneID 793)	2	-0.366	74.6	0.662	70
CALB1 (GeneID 793)	3	-0.466	72.6	-0.0807	82.9
GCSHP9 (GeneID 442293)	1	-0.505	71.8	-0.743	97.6
GCSHP9 (GeneID 442293)	2	-1.59	50.3	-0.945	72
GCSHP9 (GeneID 442293)	3	-0.726	67.5	-0.616	88.7
ABCE1 (GeneID 6059)	1	-2.35	35.2	-2.71	80.4
ABCE1 (GeneID 6059)	2	-0.688	68.2	-0.00962	76.4
ABCE1 (GeneID 6059)	3	-1.87	44.6	-1.54	74.7
UBE2E2 (GeneID 7325)	1	-1.05	61	-0.377	75.3
UBE2E2 (GeneID 7325)	2	-2.02	41.6	-1.3	65.5
UBE2E2 (GeneID 7325)	3	-0.782	66.3	-0.398	82.3
BORCS8-MEF2B (GeneID 4207)	1	-0.838	65.2	-0.199	76.8
BORCS8-MEF2B (GeneID 4207)	2	-0.0636	80.6	-0.779	111
BORCS8-MEF2B (GeneID 4207)	3	-2.74	27.4	-1.98	51.7
PTAFR (GeneID 5724)	1	-0.602	69.9	-0.907	99.2
PTAFR (GeneID 5724)	2	0.505	91.9	1.31	72.7
PTAFR (GeneID 5724)	3	-0.572	70.5	-0.35	86.4
RGL1 (GeneID 23179)	1	-0.222	77.5	-0.613	102
RGL1 (GeneID 23179)	2	-1.24	57.2	-1.01	83.3
RGL1 (GeneID 23179)	3	-1.29	56.3	-1.44	91.9
L2HGDH (GeneID 79944)	1	-1.1	60	-1.44	98
L2HGDH (GeneID 79944)	2	1.86	119	1.21	96.5
L2HGDH (GeneID 79944)	3	-0.648	69	-0.957	99.2
RBP2 (GeneID 5948)	1	-0.556	70.8	-0.923	101
RBP2 (GeneID 5948)	2	-1.15	59	-1.73	104
RBP2 (GeneID 5948)	3	-0.338	75.2	-0.377	92.8
ALPK2 (GeneID 115701)	1	0.323	88.3	0.478	87
ALPK2 (GeneID 115701)	2	-1.08	60.4	-1.27	94.4
ALPK2 (GeneID 115701)	3	-0.0271	81.3	-1.02	119
KCNJ3 (GeneID 3760)	1	0.528	92.4	1.41	71.3
KCNJ3 (GeneID 3760)	2	-0.0693	80.5	-0.525	103
KCNJ3 (GeneID 3760)	3	-0.481	72.3	-0.581	94.2
C8orf58 (GeneID 541565)	1	-0.0198	81.5	0.853	72.7
C8orf58 (GeneID 541565)	2	-0.122	79.5	-0.102	91.2
C8orf58 (GeneID 541565)	3	0.16	85.1	0.158	91.2
PCDH1 (GeneID 5097)	1	0.681	95.4	0.53	92.8
PCDH1 (GeneID 5097)	2	0.265	87.2	0.617	82.8
PCDH1 (GeneID 5097)	3	-0.505	71.8	0.118	77.8
FAM86C2P (GeneID 645332)	1	1.85	119	1.34	93.3
FAM86C2P (GeneID 645332)	2	3.41 (active)	150	3.26	70.9
FAM86C2P (GeneID 645332)	3	0.224	86.3	-0.572	112
HEPHL1 (GeneID 341208)	1	-1.2	58.1	-1.41	94.2
HEPHL1 (GeneID 341208)	2	0.718	96.2	0.199	102
HEPHL1 (GeneID 341208)	3	-0.0794	80.3	-0.459	101
VSIG10L (GeneID 147645)	1	0.542	92.7	1.06	78.2
VSIG10L (GeneID 147645)	2	2.43	130	1.72	92.5
VSIG10L (GeneID 147645)	3	0.22	86.3	0.184	91.8
MTNR1A (GeneID 4543)	1	-0.619	69.6	-1.06	103
MTNR1A (GeneID 4543)	2	0.119	84.3	0.0404	93.2
MTNR1A (GeneID 4543)	3	-0.822	65.5	-0.872	92.1
YIPF7 (GeneID 285525)	1	2.22	126	2.03	82.6
YIPF7 (GeneID 285525)	2	-1.32	55.7	-0.957	80
YIPF7 (GeneID 285525)	3	-1.39	54.2	-0.549	70
LOC728417 (GeneID 728417)	1	-0.234	77.2	-0.581	101
LOC728417 (GeneID 728417)	2	1.46	111	0.995	95.3
LOC728417 (GeneID 728417)	3	-0.251	76.9	-0.321	93.5
LMBRD1 (GeneID 55788)	1	-0.426	73.4	-0.669	97.8
LMBRD1 (GeneID 55788)	2	0.56	93	-0.12	107
LMBRD1 (GeneID 55788)	3	-0.915	63.7	0.611	60.6
